Assay results from the supplement of paper PMC12819154, “High-throughput peptide-centric local stability assay extends protein–ligand identification to membrane proteins, tissues and bacteria” (Nature Structural & Molecular Biology, 2025).
The other results are listed elsewhere or left out. Most values lie at the level of the controls, where differences are scatter.

Amino acid sequences for entries named in this document (tags omitted). A change or cut given only in a name is not applied to a line headed by its entry.
UniProt Q9D735: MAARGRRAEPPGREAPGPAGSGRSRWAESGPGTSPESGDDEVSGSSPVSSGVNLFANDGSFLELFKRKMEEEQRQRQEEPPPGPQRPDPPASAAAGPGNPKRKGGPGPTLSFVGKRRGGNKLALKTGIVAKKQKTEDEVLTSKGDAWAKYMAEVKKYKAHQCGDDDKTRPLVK
UniProt Q9D8X0: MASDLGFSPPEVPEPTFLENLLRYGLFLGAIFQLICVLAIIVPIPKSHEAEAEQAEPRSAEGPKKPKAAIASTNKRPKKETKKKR
UniProt Q9D7W5: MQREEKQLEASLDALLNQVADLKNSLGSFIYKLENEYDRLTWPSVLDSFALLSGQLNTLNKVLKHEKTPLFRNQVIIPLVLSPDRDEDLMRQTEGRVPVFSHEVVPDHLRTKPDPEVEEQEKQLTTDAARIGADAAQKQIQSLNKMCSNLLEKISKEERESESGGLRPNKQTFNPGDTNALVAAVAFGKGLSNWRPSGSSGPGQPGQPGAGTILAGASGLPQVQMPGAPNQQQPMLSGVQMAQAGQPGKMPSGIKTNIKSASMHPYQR
UniProt Q9D8C6: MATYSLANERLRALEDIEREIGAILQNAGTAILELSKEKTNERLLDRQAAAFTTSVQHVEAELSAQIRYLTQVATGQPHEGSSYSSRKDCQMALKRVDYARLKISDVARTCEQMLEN
UniProt Q9D6X6: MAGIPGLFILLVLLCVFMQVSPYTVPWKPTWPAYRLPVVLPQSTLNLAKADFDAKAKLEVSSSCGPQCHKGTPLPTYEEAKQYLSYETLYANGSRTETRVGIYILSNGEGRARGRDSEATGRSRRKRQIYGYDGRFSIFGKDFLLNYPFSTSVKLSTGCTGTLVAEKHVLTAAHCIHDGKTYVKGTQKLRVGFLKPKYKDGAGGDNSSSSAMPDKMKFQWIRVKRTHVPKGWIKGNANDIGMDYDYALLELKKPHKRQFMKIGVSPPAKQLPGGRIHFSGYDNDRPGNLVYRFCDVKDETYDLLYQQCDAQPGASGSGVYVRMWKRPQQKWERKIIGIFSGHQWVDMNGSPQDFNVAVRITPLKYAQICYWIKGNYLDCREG
UniProt Q9D4H8: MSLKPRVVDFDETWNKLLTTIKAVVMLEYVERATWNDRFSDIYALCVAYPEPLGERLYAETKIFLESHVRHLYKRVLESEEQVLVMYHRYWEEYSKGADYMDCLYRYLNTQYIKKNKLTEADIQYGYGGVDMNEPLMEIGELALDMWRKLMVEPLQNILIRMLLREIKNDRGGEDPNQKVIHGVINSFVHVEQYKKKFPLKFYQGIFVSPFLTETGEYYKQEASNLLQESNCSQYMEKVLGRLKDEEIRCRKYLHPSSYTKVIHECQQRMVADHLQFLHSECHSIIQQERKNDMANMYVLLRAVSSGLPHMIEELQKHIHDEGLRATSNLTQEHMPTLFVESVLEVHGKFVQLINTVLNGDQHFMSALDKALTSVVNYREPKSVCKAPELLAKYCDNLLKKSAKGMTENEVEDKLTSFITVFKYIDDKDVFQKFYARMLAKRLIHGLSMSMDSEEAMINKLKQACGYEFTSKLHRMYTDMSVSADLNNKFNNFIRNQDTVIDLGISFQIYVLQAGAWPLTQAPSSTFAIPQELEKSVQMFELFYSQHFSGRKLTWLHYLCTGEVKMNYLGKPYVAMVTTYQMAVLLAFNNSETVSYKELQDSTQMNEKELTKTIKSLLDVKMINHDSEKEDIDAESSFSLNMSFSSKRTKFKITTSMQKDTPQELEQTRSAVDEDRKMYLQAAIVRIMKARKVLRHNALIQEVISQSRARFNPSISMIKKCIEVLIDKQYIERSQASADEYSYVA
UniProt Q9D7N3, whole entry: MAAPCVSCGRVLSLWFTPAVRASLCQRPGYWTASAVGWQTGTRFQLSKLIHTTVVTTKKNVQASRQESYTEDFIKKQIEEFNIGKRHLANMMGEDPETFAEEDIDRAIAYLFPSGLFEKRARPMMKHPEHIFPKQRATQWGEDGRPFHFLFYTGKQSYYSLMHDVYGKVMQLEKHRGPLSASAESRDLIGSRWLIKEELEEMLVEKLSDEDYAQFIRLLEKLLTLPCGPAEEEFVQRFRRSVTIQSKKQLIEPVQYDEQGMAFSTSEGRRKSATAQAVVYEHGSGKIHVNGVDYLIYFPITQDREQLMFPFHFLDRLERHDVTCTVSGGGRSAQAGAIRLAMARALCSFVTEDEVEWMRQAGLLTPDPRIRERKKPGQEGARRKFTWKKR
UniProt Q9D479: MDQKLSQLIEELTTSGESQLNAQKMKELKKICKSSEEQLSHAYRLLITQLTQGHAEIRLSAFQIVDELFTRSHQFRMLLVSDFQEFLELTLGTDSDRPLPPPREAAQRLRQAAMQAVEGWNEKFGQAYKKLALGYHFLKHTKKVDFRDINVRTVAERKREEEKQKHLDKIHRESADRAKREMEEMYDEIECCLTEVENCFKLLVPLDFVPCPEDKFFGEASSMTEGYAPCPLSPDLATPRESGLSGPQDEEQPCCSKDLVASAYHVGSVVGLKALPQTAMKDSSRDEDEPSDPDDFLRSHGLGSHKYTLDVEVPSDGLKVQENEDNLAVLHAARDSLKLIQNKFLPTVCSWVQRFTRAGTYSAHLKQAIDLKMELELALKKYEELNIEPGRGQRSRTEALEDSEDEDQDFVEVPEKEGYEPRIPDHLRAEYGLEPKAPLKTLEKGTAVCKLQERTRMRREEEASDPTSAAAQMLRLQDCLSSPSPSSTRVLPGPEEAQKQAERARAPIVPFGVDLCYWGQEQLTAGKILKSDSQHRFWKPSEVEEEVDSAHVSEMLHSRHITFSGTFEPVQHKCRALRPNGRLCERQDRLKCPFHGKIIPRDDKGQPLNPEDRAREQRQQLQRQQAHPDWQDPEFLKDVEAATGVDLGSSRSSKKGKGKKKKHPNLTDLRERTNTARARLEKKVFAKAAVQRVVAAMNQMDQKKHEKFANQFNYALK
UniProt Q9DA69: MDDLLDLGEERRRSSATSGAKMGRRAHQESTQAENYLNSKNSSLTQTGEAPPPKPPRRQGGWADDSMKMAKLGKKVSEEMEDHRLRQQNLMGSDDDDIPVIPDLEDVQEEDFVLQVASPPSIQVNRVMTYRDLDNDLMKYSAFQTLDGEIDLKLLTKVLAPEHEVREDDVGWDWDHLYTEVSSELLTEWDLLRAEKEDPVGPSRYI

compound: CN[C@@H]1C[C@H]2O[C@@](C)([C@@H]1OC)n1c3ccccc3c3c4c(c5c6ccccc6n2c5c31)C(=O)NC4 [staurosporine]; assay: log2 fold change of tryptic peptide abundance, ligand vs vehicle (limited proteolysis) (log2 ratio); higher = more trypsin-susceptible (destabilized); conditions: ligand concentration: 20 uM; sample: mouse liver crude lysate; replicate design: treated separately

Target	log2 fold change
UniProt Q9D735 (peptide sequence: KGGPGPTLSFVGK, peptide start residue: 103)	0.301
UniProt Q9D8X0 (peptide sequence: SHEAEAEQAEPR, peptide start residue: 47)	0.187
UniProt Q9D7W5 (peptide sequence: VPVFSHEVVPDHLR, peptide start residue: 97)	-0.349
UniProt Q9D8C6 (peptide sequence: LKISDVAR, peptide start residue: 102)	-0.0364
UniProt Q9D6X6 (peptide sequence: AKLEVSSSCGPQCHK, peptide start residue: 56)	0.00845
UniProt Q9D338 (peptide sequence: FLSPEFIPPR, peptide start residue: 75)	0.177
UniProt Q9D4H8 (peptide sequence: KLMVEPLQNILIR, peptide start residue: 149)	-0.224
UniProt Q9D1K7 (peptide sequence: FAAGHDAEGSQSHVHFDEK, peptide start residue: 17)	-0.195
UniProt Q9D7N3 (peptide sequence: QSYYSLMHDVYGK, peptide start residue: 156)	-0.225
UniProt Q9D479 (peptide sequence: VQENEDNLAVLHAAR, peptide start residue: 320)	-0.512
UniProt Q9DA69 (peptide sequence: RSSATSGAK, peptide start residue: 13)	-0.297

Single values from above.
UniProt Q9D8X0 (peptide sequence: SHEAEAEQAEPR, peptide start residue: 47) – log2 fold change: 0.187
UniProt Q9D735 (peptide sequence: KGGPGPTLSFVGK, peptide start residue: 103) – log2 fold change: 0.301
